# Laboratory results reported in paper PMC3817735.
# Test system: Stat5 (tyrosine-phosphorylated, Prl-activated)
# Assay: EMSA
# Conditions: 20 mM HEPES, 1 mM EDTA, 20 mM KCl, 1 mM DTT, 2 mM MgCl2, pH not stated, room temperature 30 min, 3-4 ug whole-cell extract, native 4% TBE-PAGE, protein in an extract, label: 32P
sequence,measurement,setting,value
TTCTTGGAATTGAAGGGACTT (double strand) [beta-casein promoter Stat5 response element],binding result,"5 ug recombinant S5-DBD-PA added in vitro to 10 ug Prl-stimulated lysate, 2 h",binds more weakly
same,binding result,"Prl-stimulated lysate, supershift with anti-Stat5",binds
same,binding result,"cells pretreated with recombinant S5-DBD-PA (1 and 2 uM, 4 h) before Prl, dose-dependent reduction",binds more weakly
same,binding result,"intracellular lentiviral expression of S5-DBD-PA, Prl-stimulated",binds more weakly

# The exact form of at least one protein or probe is not confirmed. At least one result comes from cells or an extract, where the contact may be indirect. Weaker means in comparison with the reference protein, sequence or condition of that experiment.
